Test results published in the supplement of paper PMC10849652.
This is one part of the list.

The chains behind the UniProt entries cited, without tags or fusion partners. Where a name states a change or a piece, a line headed by the entry shows the natural chain unless it says otherwise.
UniProt Q9P260: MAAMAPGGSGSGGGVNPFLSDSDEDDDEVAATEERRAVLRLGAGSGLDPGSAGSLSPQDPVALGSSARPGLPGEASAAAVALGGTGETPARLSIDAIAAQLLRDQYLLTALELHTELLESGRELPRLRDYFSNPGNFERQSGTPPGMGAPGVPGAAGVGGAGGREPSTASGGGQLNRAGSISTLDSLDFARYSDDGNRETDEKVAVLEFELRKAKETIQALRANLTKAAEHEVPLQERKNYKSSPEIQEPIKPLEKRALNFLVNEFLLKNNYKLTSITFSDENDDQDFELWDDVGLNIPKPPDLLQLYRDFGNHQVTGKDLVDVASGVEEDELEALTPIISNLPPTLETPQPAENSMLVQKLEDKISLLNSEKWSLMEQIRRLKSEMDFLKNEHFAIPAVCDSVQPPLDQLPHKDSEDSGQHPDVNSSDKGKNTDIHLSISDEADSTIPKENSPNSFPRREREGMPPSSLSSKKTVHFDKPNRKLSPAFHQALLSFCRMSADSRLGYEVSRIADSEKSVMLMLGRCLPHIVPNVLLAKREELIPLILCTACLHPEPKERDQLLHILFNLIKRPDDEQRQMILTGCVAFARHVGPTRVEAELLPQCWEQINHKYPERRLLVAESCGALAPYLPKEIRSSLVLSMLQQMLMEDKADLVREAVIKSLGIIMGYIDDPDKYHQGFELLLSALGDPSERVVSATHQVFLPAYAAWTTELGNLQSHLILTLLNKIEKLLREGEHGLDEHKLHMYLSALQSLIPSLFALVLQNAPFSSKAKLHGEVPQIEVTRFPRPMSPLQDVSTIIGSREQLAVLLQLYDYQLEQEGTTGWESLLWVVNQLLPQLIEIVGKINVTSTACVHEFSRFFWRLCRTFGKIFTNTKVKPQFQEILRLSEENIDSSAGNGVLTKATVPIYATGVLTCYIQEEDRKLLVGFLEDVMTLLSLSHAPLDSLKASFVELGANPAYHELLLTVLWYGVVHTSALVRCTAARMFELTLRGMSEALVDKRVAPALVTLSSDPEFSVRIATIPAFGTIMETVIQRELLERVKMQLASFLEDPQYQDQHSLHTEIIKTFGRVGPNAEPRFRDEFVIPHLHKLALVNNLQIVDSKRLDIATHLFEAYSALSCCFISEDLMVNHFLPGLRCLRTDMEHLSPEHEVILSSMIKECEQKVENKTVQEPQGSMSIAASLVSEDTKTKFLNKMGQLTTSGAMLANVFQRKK
UniProt Q96IC2: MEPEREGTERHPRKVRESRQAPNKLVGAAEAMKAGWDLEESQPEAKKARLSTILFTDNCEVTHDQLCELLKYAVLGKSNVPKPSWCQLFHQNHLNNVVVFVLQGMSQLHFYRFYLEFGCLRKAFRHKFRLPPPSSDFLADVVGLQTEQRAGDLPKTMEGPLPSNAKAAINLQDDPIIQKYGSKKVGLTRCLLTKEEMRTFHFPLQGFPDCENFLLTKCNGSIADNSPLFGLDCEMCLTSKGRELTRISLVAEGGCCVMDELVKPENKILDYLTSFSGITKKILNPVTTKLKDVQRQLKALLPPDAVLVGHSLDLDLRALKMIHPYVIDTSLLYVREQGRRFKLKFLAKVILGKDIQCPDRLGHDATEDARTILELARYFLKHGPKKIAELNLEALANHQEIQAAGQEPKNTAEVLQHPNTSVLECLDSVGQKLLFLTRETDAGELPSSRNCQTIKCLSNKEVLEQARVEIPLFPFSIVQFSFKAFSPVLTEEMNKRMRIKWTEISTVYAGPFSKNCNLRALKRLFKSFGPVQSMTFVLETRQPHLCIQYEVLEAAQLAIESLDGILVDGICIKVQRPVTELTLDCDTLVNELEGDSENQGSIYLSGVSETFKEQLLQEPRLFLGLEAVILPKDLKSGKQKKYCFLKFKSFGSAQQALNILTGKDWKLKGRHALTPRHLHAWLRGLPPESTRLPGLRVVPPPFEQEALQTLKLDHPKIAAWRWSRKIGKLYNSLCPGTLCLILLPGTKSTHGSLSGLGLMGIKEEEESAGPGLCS
UniProt Q86WH2: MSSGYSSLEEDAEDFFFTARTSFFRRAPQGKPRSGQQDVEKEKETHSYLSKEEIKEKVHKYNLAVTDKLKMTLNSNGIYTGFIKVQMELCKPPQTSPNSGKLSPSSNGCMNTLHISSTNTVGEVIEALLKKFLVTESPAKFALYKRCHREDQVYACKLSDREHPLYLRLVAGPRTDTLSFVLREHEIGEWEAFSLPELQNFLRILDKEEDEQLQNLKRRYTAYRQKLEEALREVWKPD
UniProt Q9Y3P4: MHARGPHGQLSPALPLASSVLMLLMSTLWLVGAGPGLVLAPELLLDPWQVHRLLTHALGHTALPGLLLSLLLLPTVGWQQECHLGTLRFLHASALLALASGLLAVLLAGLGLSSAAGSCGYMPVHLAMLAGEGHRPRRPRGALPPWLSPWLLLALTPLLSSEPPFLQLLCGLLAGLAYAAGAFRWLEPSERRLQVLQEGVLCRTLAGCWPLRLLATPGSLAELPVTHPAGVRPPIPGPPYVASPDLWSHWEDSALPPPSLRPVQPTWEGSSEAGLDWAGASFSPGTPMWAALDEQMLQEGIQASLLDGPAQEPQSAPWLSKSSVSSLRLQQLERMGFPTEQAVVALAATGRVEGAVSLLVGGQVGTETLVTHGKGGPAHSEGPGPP
UniProt P48378: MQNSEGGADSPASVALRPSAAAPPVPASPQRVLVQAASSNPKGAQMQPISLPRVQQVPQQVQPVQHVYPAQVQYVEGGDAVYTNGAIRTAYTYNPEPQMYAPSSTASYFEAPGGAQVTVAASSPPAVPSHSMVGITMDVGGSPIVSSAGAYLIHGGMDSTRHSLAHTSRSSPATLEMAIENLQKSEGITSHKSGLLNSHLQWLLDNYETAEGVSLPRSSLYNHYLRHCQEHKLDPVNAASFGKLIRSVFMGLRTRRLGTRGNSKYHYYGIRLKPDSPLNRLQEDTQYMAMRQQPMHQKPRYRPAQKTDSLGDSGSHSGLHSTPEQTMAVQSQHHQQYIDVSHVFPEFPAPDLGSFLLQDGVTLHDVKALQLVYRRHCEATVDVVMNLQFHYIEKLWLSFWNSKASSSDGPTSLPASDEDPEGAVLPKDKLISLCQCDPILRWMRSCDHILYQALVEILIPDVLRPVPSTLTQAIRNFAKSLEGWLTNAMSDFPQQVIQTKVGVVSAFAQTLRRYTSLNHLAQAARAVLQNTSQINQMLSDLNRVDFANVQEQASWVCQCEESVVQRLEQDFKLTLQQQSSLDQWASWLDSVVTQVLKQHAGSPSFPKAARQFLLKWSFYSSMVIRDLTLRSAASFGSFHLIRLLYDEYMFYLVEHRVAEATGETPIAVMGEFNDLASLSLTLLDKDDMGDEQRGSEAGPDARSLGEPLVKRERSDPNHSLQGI
UniProt Q96H35: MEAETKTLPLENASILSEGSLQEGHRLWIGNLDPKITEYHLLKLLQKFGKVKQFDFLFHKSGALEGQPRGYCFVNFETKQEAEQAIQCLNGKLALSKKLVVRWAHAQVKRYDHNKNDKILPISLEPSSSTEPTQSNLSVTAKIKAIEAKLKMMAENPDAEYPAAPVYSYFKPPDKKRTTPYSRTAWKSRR
UniProt Q15291, whole entry, looked up: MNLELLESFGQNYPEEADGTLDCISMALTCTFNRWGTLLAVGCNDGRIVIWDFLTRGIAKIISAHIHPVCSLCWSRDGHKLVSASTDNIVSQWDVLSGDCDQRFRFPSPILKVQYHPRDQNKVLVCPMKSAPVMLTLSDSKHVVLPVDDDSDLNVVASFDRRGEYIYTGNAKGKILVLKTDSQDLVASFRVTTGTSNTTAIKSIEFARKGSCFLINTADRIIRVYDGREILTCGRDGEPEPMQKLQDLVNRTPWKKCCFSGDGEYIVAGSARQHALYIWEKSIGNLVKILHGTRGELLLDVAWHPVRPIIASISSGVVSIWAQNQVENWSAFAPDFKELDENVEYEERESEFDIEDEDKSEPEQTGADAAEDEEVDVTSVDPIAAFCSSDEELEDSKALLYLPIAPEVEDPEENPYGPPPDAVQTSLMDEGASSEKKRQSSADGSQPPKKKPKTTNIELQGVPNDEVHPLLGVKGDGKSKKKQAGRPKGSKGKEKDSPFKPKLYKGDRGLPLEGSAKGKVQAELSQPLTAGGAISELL
UniProt Q8N0V3: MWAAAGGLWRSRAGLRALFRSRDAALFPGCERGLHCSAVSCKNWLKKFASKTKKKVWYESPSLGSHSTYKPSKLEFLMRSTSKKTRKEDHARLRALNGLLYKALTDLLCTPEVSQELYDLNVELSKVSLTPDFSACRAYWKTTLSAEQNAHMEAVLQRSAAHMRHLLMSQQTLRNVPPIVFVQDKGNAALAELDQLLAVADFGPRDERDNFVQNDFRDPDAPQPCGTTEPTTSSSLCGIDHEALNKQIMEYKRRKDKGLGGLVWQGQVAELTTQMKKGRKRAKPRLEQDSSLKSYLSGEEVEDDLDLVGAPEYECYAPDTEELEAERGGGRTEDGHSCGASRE
UniProt Q9Y2P8: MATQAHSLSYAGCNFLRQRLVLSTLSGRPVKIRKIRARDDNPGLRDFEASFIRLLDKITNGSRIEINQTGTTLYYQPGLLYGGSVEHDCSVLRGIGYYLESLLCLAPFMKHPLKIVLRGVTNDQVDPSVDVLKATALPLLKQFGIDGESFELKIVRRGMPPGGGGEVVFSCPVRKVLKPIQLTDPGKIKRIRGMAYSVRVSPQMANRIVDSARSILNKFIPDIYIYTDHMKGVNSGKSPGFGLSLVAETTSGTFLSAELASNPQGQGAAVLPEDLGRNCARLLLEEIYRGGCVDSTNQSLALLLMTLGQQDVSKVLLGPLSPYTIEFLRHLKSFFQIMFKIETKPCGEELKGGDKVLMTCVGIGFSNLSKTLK
UniProt Q08999: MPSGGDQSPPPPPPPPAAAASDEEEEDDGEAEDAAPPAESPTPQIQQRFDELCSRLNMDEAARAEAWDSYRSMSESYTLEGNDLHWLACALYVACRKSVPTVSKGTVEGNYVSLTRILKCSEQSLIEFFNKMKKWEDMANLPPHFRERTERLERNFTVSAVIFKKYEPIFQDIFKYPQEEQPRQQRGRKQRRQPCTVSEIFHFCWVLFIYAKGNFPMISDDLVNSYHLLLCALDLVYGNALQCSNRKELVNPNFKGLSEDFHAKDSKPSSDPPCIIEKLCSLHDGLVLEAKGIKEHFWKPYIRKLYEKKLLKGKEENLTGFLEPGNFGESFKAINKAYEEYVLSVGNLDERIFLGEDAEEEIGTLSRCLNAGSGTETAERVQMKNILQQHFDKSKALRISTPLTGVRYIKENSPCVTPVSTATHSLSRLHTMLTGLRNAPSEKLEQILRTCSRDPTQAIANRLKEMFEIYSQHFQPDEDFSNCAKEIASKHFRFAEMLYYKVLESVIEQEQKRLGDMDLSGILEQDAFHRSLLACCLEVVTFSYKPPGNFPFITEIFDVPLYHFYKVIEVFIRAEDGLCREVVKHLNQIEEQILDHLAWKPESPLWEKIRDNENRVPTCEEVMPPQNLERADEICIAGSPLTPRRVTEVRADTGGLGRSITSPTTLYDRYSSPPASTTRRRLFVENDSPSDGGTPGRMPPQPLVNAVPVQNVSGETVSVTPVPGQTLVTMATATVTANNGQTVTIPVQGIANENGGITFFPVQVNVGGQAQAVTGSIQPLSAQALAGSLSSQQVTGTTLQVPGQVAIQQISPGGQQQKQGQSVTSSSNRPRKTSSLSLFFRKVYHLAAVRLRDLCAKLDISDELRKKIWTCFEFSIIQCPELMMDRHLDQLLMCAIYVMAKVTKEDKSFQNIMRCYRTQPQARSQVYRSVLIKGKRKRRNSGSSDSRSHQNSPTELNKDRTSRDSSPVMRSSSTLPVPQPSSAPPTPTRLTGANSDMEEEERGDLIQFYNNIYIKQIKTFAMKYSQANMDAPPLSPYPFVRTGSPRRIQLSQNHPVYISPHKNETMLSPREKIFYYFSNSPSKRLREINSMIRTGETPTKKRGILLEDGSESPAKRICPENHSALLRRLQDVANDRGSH
UniProt O43566: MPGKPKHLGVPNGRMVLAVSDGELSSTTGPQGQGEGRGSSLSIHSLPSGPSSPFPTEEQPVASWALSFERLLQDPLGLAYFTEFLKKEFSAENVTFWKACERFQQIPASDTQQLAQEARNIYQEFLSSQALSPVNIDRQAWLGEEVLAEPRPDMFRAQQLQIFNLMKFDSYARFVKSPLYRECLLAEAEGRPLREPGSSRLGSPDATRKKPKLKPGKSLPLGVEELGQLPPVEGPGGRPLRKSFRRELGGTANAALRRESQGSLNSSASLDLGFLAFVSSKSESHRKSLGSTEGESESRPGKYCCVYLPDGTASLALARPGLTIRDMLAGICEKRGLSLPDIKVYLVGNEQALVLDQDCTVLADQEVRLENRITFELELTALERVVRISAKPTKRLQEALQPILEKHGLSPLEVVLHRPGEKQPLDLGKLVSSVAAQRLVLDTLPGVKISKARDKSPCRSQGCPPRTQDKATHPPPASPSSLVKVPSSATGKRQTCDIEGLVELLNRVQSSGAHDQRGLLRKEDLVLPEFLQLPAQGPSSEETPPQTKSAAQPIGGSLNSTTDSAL

What was measured:
Experiment in all cases: log2 fold change, soluble protein after heating vs DMSO (PISA); higher = thermal stabilisation; K562 lysate, 10 uM; active = over 0.2 and 3.5 SD of the protein, either way, in both replicates (recomputed)
vorinostat = compound: O=C(CCCCCCC(=O)Nc1ccccc1)NO [vorinostat]
Outline: (§1)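 Values give the log-two fold change in thermal stability against solvent controls, from duplicates. Crude K562 extract at 1 mg/mL protein, made by dounce homogenisation in PBS pH 7.4 with 1 mM MgCl2, was treated with 10 μM compound for 30 min. After 3 min heating across 48°C-58°C, aliquots were pooled, adjusted to 0.5% NP-40 at 4°C and centrifuged at 21,000xg for 90 min. The supernatant was measured by TMTpro 16plex LC-MS/MS with channel sums equalised.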

silmitasertib = compound: O=C(O)c1ccc2c(c1)nc(Nc1cccc(Cl)c1)c1ccncc12 [silmitasertib]
Outline: as §1

[1] = compound: O=C1NC(=O)C(c2cnc3ccccn23)=C1c1cn2c3c(cc(F)cc13)CN(C(=O)N1CCCCC1)CC2
Outline: as §1

[2] = compound: NCC(=O)Nc1ccc(-n2nc(C(F)(F)F)cc2-c2ccc3c(ccc4ccccc43)c2)cc1
Outline: as §1

entospletinib = compound: c1cn2cc(-c3ccc4cn[nH]c4c3)nc(Nc3ccc(N4CCOCC4)cc3)c2n1 [entospletinib]
Outline: as §1

| Target | log2 fold change (vorinostat) | log2 fold change (silmitasertib) | log2 fold change [1] | log2 fold change [2] | log2 fold change (entospletinib) |
| --- | --- | --- | --- | --- | --- |
| RGS3 (UniProt P49796) | inactive: -0.016 | inactive: -0.09 | inactive: 0.043 |  |  |
| RGPD6 (UniProt H7BZ48) |  |  | inactive: 0.064 |  |  |
| RELCH (UniProt Q9P260) |  |  | inactive: 0.129 | inactive: -0.056 |  |
| REXO5 (UniProt Q96IC2) | inactive: -0.137 | inactive: 0.068 |  | inactive: 0.021 | inactive: -0.023 |
| RASSF3 (UniProt Q86WH2) |  |  | inactive: -0.017 |  |  |
| RHBDD3 (UniProt Q9Y3P4) |  |  | inactive: 0.008 |  |  |
| RFX2 (UniProt P48378) |  |  | inactive: 0.028 |  |  |
| RBM18 (UniProt Q96H35) |  |  |  | inactive: 0.06 | inactive: -0.039 |
| RBBP5 isoform 2 (UniProt Q15291) |  |  | inactive: 0.322 | inactive: 0.22 | inactive: -0.191 |
| RBFA (UniProt Q8N0V3) | inactive: 0.058 | inactive: -0.032 | inactive: -0.077 |  |  |
| RCL1 (UniProt Q9Y2P8) | inactive: -0.2 | inactive: 0.112 | inactive: -0.03 | inactive: 0.044 | inactive: -0.052 |
| RAVER2 (UniProt Q9HCJ3) | inactive: 0.101 | inactive: -0.038 | inactive: -0.082 |  | inactive: -0.081 |
| RBL2 (UniProt Q08999) |  |  | inactive: 0.081 |  | inactive: -0.035 |
| RGS14 (UniProt O43566) | inactive: -0.095 | inactive: -0.124 | inactive: -0.036 |  | inactive: 0 |

Full records from above:
RAVER2 (UniProt Q9HCJ3) in the list: log2 fold change (vorinostat): inactive: 0.101; log2 fold change (silmitasertib): inactive: -0.038; log2 fold change [1]: inactive: -0.082; log2 fold change (entospletinib): inactive: -0.081
RHBDD3 (UniProt Q9Y3P4) in the list: log2 fold change [1]: inactive: 0.008
